{"source": "paper PMC12040169", "about": "(PLOS Biology, 2025)", "note": "This is one part of the list.", "data": [{"test_system": "T1, CTL2-GFP (C. trachomatis L2/434/Bu, GFP-expressing)", "T1 construct": "L2/434/Bu, GFP-expressing", "parameters": "species or system HeLa; Intracellular C. trachomatis growth in HeLa cells, bulk GFP fluorescence relative to DMSO", "conditions": "bulk GFP, single well; 28.5 h, 10 µM; inhibitor", "units": {"% of control remaining": "%"}, "values": [{"smiles": "Cc1[nH]c2ccccc2c1/C=C1/C(=N)N2C(SCc3ccccc3)=NSC2=NC1=O", "note": "[CBK265291]", "% of control remaining": 124.02}, {"smiles": "CN1CCN(C2c3ccccc3Oc3ccccc32)CC1", "note": "[CBK066891]", "% of control remaining": 164.851}, {"smiles": "O=C(O)CCn1c2ccc(Cl)cc2c2cc(Cl)ccc21", "note": "[CBK261415]", "% of control remaining": 100}, {"smiles": "O=C(O)c1cccc(-c2cncc(NCc3ccncc3)n2)c1", "note": "[CBK037915]", "% of control remaining": 95.2123}, {"smiles": "OCc1ccc(-c2nccnc2NCCc2c[nH]c3ccccc23)cc1", "note": "[CBK038004]", "% of control remaining": 179.499}, {"smiles": "Cc1oc2ccc(O)cc2c1C(=O)N(C)C(C)Cc1ccccn1", "note": "(stereo not drawn) [CBK282627]", "% of control remaining": 108.995}, {"smiles": "O=c1oc2ccccc2c2nc(-c3ccncc3)ncc12", "note": "[CBK288536]", "% of control remaining": 92.7336}, {"smiles": "CCOc1cc(O)c(-c2nc(N)ncc2-c2ccc3c(c2)OCCO3)cc1CC", "note": "[CBK288174]", "% of control remaining": 133.713}, {"smiles": "C[C@@H]1CNCCN1c1cc(C(F)(F)F)cc(OCc2ccccc2)n1", "note": "[CBK026755]", "% of control remaining": 115.951}, {"smiles": "CCNCCNc1ccc([N+](=O)[O-])cc1", "note": "[CBK264179C]", "% of control remaining": 137.604}, {"smiles": "Nc1cc(O)nc(SCC(=O)N2CCN(C(c3ccccc3)c3ccccc3)CC2)n1", "note": "[CBK268014]", "% of control remaining": 111.626}, {"smiles": "CN(C)CCN(C)c1ccc(-c2cc3ccccc3o2)cn1", "note": "[CBK036820]", "% of control remaining": 94.9804}, {"smiles": "O=C1CSC(c2cccc(Cl)c2Cl)N1C1CCCCC1", "note": "(stereo not drawn) [CBK020678]", "% of control remaining": 72.4579}, {"smiles": "Cc1noc(C)c1NC(=O)c1cncnc1", "note": "[CBK200382]", "% of control remaining": 110.542}, {"smiles": "O=C(O)CCCC(=O)N1CCN2C(=O)c3cc(Br)ccc3NC(=O)[C@@H]2C1", "note": "[CBK289581]", "% of control remaining": 117.88}, {"smiles": "CN(CC(=O)Nc1ccccc1-c1ccccc1)S(=O)(=O)c1ccc2ccccc2c1", "note": "[CBK267432]", "% of control remaining": 117.604}, {"smiles": "OCc1ccccc1-c1cncc(NCc2cccs2)n1", "note": "[CBK065345]", "% of control remaining": 112.13}, {"smiles": "Cn1[nH]c(COC(C)(C)C)c(Cc2c(Cl)cccc2Cl)c1=O", "note": "[CBK093521]", "% of control remaining": 118.16}, {"smiles": "O=C(Nc1ccc2oc(-c3cccnc3)nc2c1)c1cccc(OCc2ccccc2)c1", "note": "[CBK263420]", "% of control remaining": 129.952}, {"smiles": "Cc1ccc2c(c1)N(C(=O)COc1nc3ccccc3s1)C(C)(C)c1ssc(=S)c1-2", "note": "[CBK262696]", "% of control remaining": 96.082}, {"smiles": "O=C(O)Cc1cnnn1-c1ccc(Cl)cc1Cl", "note": "[CBK288035]", "% of control remaining": 124.627}, {"smiles": "Cc1ccc(S(=O)(=O)OC[C@H]2O[C@@H](n3ccc(=O)[nH]c3=O)C[C@H]2O)cc1", "note": "[CBK201283]", "% of control remaining": 155.283}, {"smiles": "CC1(C)Cc2nc3sc(C(=O)O)c(NC(=O)c4ccccc4)c3cc2CO1", "note": "[CBK266166]", "% of control remaining": 140.024}, {"smiles": "Cc1nnc2sc(-c3ccc(NC(=O)CSc4ccc(Cl)cc4)cc3)nn12", "note": "[CBK266800]", "% of control remaining": 88.2035}, {"smiles": "CN1CCCN(c2nccnc2-c2ccccc2CO)CC1", "note": "[CBK038014]", "% of control remaining": 135.394}, {"smiles": "CCN1CCCC1CN(Cc1cccs1)Cc1cnc(C)n1C", "note": "(stereo not drawn) [CBK282603]", "% of control remaining": 114.894}, {"smiles": "CCn1cc(C2CN(S(=O)(=O)c3sc(C)nc3C)CCO2)cn1", "note": "(stereo not drawn) [CBK305420]", "% of control remaining": 81.1275}, {"smiles": "CC(C)CCn1cc(C(=O)N2CCNCC2c2cccc(Cl)c2)nn1", "note": "(stereo not drawn) [CBK304115]", "% of control remaining": 132.137}, {"smiles": "COC(=O)c1ccc(NC(=O)c2c(Br)c(Br)c(Br)c(Br)c2C(=O)O)cc1", "note": "[CBK261321]", "% of control remaining": 100}, {"smiles": "CCCc1[nH]nc(O)c1Cc1ccccc1-c1ccccc1", "note": "[CBK075034]", "% of control remaining": 117.877}, {"smiles": "COc1ccc2[nH]c(C(=O)N3CCn4nc(CO)cc4C3)c(C)c2c1", "note": "[CBK307302]", "% of control remaining": 118.158}, {"smiles": "S=C(Nc1ncn(Cc2ccc(Cl)c(Cl)c2)n1)Nc1ccc(Br)cc1Cl", "note": "[CBK266940]", "% of control remaining": 142.25}, {"smiles": "Cc1ccc(NC(=O)c2cnc3ccccc3c2)c(C)n1", "note": "[CBK200290]", "% of control remaining": 144.604}, {"smiles": "COc1ccc([C@@]23CC/C(=N/NS(=O)(=O)c4ccc(C)cc4)C[C@@H]2N(Cc2ccccc2)CC3)cc1OC", "note": "[CBK002717]", "% of control remaining": 100.175}, {"smiles": "COC(=O)Nc1ncc(CN2CCCCC2)s1", "note": "[CBK268208]", "% of control remaining": 98.6362}, {"smiles": "COc1ncc(-c2cc(N3CCN(CCN(C)C)CC3)n3nccc3n2)c(OC)n1", "note": "[CBK037033]", "% of control remaining": 140.321}, {"smiles": "COc1ccc(NC(=S)NC(=N)N2CCN(Cc3ccccc3)CC2)cc1", "note": "[CBK267858]", "% of control remaining": 132.578}, {"smiles": "CC(=O)Nc1ccc(S(=O)(=O)Nc2ccccc2C(=O)O)cc1", "note": "[CBK042361]", "% of control remaining": 118.928}, {"smiles": "CCCC1C(C(N)=O)=C(C)NC(C)=C1C(N)=O", "note": "[CBK019102]", "% of control remaining": 129.482}, {"smiles": "C=CCn1c(SCC(=O)Nc2cc(Cl)ccc2C)nnc1-c1ccccc1O", "note": "[CBK266867]", "% of control remaining": 139.676}, {"smiles": "CCc1ccc(Oc2cc(N3CCC(C(=O)NC4CC4)CC3)ncn2)cc1", "note": "[CBK287854]", "% of control remaining": 113.017}, {"smiles": "CC(C)(C)NS(=O)(=O)c1ccc(OCC(=O)O)cc1", "note": "[CBK287077]", "% of control remaining": 105.795}, {"smiles": "CC(CCCC(C)(C)O)Nc1cncc(-c2cccc(Cl)c2)n1", "note": "(stereo not drawn) [CBK037857]", "% of control remaining": 108.006}, {"smiles": "O=c1c2scc(-c3cccc(F)c3)c2ncn1Cc1ccc(F)cc1", "note": "[CBK287810]", "% of control remaining": 136.259}, {"smiles": "CCOC(=O)c1ccoc1CN1CCCC1c1ccsc1", "note": "(stereo not drawn) [CBK304878]", "% of control remaining": 65.8871}, {"smiles": "CCCS(=O)(=O)N1CCN(CCN2C(=O)c3cccc4cccc(c34)C2=O)CC1", "note": "[CBK265559]", "% of control remaining": 125.728}, {"smiles": "COc1cc2c(cc1OC)C(C)N(Cc1cc(C)c(O)c(C)c1)CC2", "note": "(stereo not drawn) [CBK074659C]", "% of control remaining": 123.148}, {"smiles": "COc1ccccc1CN(Cc1cccnc1)C(=O)CNC(C)=O", "note": "[CBK306843]", "% of control remaining": 95.8109}, {"smiles": "Cc1ccc(NC(=O)c2cc(C(=O)Nc3ccc(C)c(C)c3)cc(N3C(=O)c4ccccc4C3=O)c2)cc1C", "note": "[CBK261328]", "% of control remaining": 100}, {"smiles": "Cn1cc(CN2CCCC(c3cc4ccccc4cn3)C2)cn1", "note": "(stereo not drawn) [CBK285042]", "% of control remaining": 113.046}, {"smiles": "O=c1/c(=C/c2ccc3c(c2)OCO3)sc2nc3cc(Br)cnc3n12", "note": "[CBK262550]", "% of control remaining": 109.427}, {"smiles": "CCOc1cccc(-c2cncc(NCc3cccs3)n2)c1", "note": "[CBK066034]", "% of control remaining": 102.206}, {"smiles": "O=c1[nH]c2ccccc2n1C1CCN(CCOC(c2ccc(F)cc2)c2ccc(F)cc2)CC1", "note": "[CBK099807G]", "% of control remaining": 119.21}, {"smiles": "Cc1nc2n(/N=C/c3ccc([N+](=O)[O-])cc3)c3ccccc3n2c1C#N", "note": "[CBK263107]", "% of control remaining": 100}, {"smiles": "O=C(O)CCSc1nnnn1C1CCCCC1", "note": "[CBK263052]", "% of control remaining": 111.194}, {"smiles": "Cc1ccccc1OCC(O)Cn1c(=N)n(CCN2CCCCC2)c2ccccc21", "note": "(stereo not drawn) [CBK266698C]", "% of control remaining": 140.469}, {"smiles": "CCc1ccc(S(=O)(=O)Nc2ccc(O)c(C(=O)O)c2)cc1", "note": "[CBK299827]", "% of control remaining": 140.77}, {"smiles": "CC(=O)N1C[C@H](c2ccsc2)[C@H]2CN(Cc3cccs3)CC[C@H]21", "note": "[CBK284586]", "% of control remaining": 75.9748}, {"smiles": "Oc1cccc(Sc2nccc(C(F)(F)F)n2)c1", "note": "[CBK093801]", "% of control remaining": 100}, {"smiles": "O=C(O)CCCC(=O)N(c1ccccc1)c1ccccc1", "note": "[CBK286901]", "% of control remaining": 131.356}, {"smiles": "FC(F)(F)C1CN(C2CCCCC2)C(=S)S1", "note": "(stereo not drawn) [CBK009719]", "% of control remaining": 136.684}, {"smiles": "O=C(NC[C@H]1C[C@@H]2CC[N@]1C[C@@H]2CN1CCN(c2ccccn2)CC1)c1ccco1", "note": "[CBK288867]", "% of control remaining": 114.813}, {"smiles": "Cc1cccc(C(N)=O)c1O", "note": "[CBK012294]", "% of control remaining": 102.577}, {"smiles": "CC(C)C(=O)N1CCC(c2[nH]ncc2-c2ccncc2)CC1", "note": "[CBK284237]", "% of control remaining": 133.397}, {"smiles": "C#CCNC(=O)N1CCC(c2c[nH]c3ccccc23)CC1", "note": "[CBK305034]", "% of control remaining": 133.6}, {"smiles": "COc1c(O)ccc(/C=N/NC(=O)c2cccnc2)c1[N+](=O)[O-]", "note": "[CBK262197]", "% of control remaining": 85.3552}, {"smiles": "Cc1cc(CN(C)C(=O)Cc2csc(NC(=O)c3ccoc3C)n2)no1", "note": "[CBK305779]", "% of control remaining": 95.7023}, {"smiles": "CCCN(C(=O)CCc1ccc(C)cc1C)C1CCNCC1", "note": "[CBK304302C]", "% of control remaining": 109.257}, {"smiles": "CC(C)NC(=O)CSc1nc2ccccc2[nH]1", "note": "[CBK072235]", "% of control remaining": 105.64}, {"smiles": "S=C(NCCc1c[nH]c2ccccc12)NCc1ccco1", "note": "[CBK267157]", "% of control remaining": 196.31}, {"smiles": "O=C(NCCC1SC(NC2CCCCCC2)=NC1=O)Nc1ccc(F)cc1F", "note": "(stereo not drawn) [CBK067469]", "% of control remaining": 120.518}, {"smiles": "O=C(Cn1cnc2ccccc21)N1CCC(c2ccccc2)C1", "note": "(stereo not drawn) [CBK281845]", "% of control remaining": 129.589}, {"smiles": "Cc1cccc(Nc2nc(N)nc(CC(=O)CSc3ccc(Cl)cc3)n2)c1", "note": "[CBK265204]", "% of control remaining": 88.547}, {"smiles": "COc1c(Cl)ccc(Cl)c1C(=O)OCC(=O)O", "note": "[CBK264596]", "% of control remaining": 91.0087}, {"smiles": "CCOCCCNC(=O)c1cnn2c(C)c(Cc3cccnc3)c(C)nc12", "note": "[CBK162152]", "% of control remaining": 146.112}, {"smiles": "Cc1nn(C)c(N2CCNCC2)c1NC(=O)/C=C/c1cccnc1", "note": "[CBK050354T]", "% of control remaining": 100}, {"smiles": "CCCNc1nc(-c2cc(OC)c(OC)c(OC)c2)cn2ccnc12", "note": "[CBK066363]", "% of control remaining": 145.565}, {"smiles": "FC(F)(F)c1ccnc(SCCc2ccccn2)c1", "note": "[CBK103709]", "% of control remaining": 112.963}, {"smiles": "O=C(Nc1cccnc1)c1c(O)n(Cc2ccccc2)c2ccccc2c1=O", "note": "[CBK291206]", "% of control remaining": 90.4654}, {"smiles": "O=C(CN1CCCC2(CCN(C(=O)c3ccoc3)C2)C1)Nc1ncccn1", "note": "(stereo not drawn) [CBK137140]", "% of control remaining": 116.473}, {"smiles": "Cc1nn(C)c(Cl)c1CN(CCC#N)Cc1ccco1", "note": "[CBK304825]", "% of control remaining": 127.043}]}]}
